Our source for the binding values is article PMC10874017.

No constants are given. Whether binding was seen depends on the method and setting. Binding seen in cells or lysates may run through a third protein. Some results given as binding are weak or reduced against the parent protein; the word gives no strength.

For this assay, the target named is T1, SHC SH2 domain-binding protein 1 (SHCBP1) (human (endogenous in tumour cell lines; line not named)) (UniProt Q8NEM2).
T1 sequence: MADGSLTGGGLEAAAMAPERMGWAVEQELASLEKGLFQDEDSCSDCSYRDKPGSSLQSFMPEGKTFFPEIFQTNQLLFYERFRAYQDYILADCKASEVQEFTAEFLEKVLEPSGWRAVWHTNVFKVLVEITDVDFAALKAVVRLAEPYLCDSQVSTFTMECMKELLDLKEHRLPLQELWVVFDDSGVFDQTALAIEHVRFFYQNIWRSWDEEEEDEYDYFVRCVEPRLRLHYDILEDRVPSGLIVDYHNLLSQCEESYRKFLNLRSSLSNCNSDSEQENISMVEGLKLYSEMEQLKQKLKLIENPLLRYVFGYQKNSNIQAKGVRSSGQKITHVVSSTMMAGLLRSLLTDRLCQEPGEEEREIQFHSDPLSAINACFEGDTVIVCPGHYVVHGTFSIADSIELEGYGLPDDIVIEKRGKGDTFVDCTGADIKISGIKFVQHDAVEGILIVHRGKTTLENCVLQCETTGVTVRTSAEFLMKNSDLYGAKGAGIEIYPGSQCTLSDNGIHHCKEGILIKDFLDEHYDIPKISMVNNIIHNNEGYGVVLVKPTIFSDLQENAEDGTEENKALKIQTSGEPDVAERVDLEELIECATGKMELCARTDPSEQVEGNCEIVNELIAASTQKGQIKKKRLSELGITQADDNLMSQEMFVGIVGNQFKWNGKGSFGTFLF
As to the kind of experiment: co-IP; endogenous proteins; asynchronous tumour cells lysed in NP-40 buffer with PMSF and protease inhibitors; 1 mg lysate protein with 30 ul protein A/G agarose beads and 5 ug primary antibody overnight at 4 °C; western blotting. On the technique in general: A western blot detects proteins with antibodies after separation by electrophoresis.

B1: MKLP1 (protein, UniProt Q02241 1-960)
chain: MKSARAKTPRKPTVKKGSQTNLKDPVGVYCRVRPLGFPDQECCIEVINNTTVQLHTPEGYRLNRNGDYKETQYSFKQVFGTHTTQKELFDVVANPLVNDLIHGKNGLLFTYGVTGSGKTHTMTGSPGEGGLLPRCLDMIFNSIGSFQAKRYVFKSNDRNSMDIQCEVDALLERQKREAMPNPKTSSSKRQVDPEFADMITVQEFCKAEEVDEDSVYGVFVSYIEIYNNYIYDLLEEVPFDPIKPKPPQSKLLREDKNHNMYVAGCTEVEVKSTEEAFEVFWRGQKKRRIANTHLNRESSRSHSVFNIKLVQAPLDADGDNVLQEKEQITISQLSLVDLAGSERTNRTRAEGNRLREAGNINQSLMTLRTCMDVLRENQMYGTNKMVPYRDSKLTHLFKNYFDGEGKVRMIVCVNPKAEDYEENLQVMRFAEVTQEVEVARPVDKAICGLTPGRRYRNQPRGPVGNEPLVTDVVLQSFPPLPSCEILDINDEQTLPRLIEALEKRHNLRQMMIDEFNKQSNAFKALLQEFDNAVLSKENHMQGKLNEKEKMISGQKLEIERLEKKNKTLEYKIEILEKTTTIYEEDKRNLQQELETQNQKLQRQFSDKRRLEARLQGMVTETTMKWEKECERRVAAKQLEMQNKLWVKDEKLKQLKAIVTEPKTEKPERPSRERDREKVTQRSVSPSPVPLSSNYIAQISNGQQLMSQPQLHRRSNSCSSISVASCISEWEQKIPTYNTPLKVTSIARRRQQEPGQSKTCIVSDRRRGMYWTEGREVVPTFRNEIEIEEDHCGRLLFQPDQNAPPIRLRHRRSRSAGDRWVDHKPASNMQTETVMQPHVPHAITVSVANEKALAKCEKYMLTHQELASDGEIETKLIKGDIYKTRGGGQSVQFTDIETLKQESPNGSRKRRSSTVAPAQPDGAESEWTDVETRCSVAVEMRAGSQLGPGYQHHAQPKRKKP
With B1, the binding entry was “binds”.

B2: RACGAP1 (protein, UniProt Q9H0H5 1-632)
chain: MDTMMLNVRNLFEQLVRRVEILSEGNEVQFIQLAKDFEDFRKKWQRTDHELGKYKDLLMKAETERSALDVKLKHARNQVDVEIKRRQRAEADCEKLERQIQLIREMLMCDTSGSIQLSEEQKSALAFLNRGQPSSSNAGNKRLSTIDESGSILSDISFDKTDESLDWDSSLVKTFKLKKREKRRSTSRQFVDGPPGPVKKTRSIGSAVDQGNESIVAKTTVTVPNDGGPIEAVSTIETVPYWTRSRRKTGTLQPWNSDSTLNSRQLEPRTETDSVGTPQSNGGMRLHDFVSKTVIKPESCVPCGKRIKFGKLSLKCRDCRVVSHPECRDRCPLPCIPTLIGTPVKIGEGMLADFVSQTSPMIPSIVVHCVNEIEQRGLTETGLYRISGCDRTVKELKEKFLRVKTVPLLSKVDDIHAICSLLKDFLRNLKEPLLTFRLNRAFMEAAEITDEDNSIAAMYQAVGELPQANRDTLAFLMIHLQRVAQSPHTKMDVANLAKVFGPTIVAHAVPNPDPVTMLQDIKRQPKVVERLLSLPLEYWSQFMMVEQENIDPLHVIENSNAFSTPQTPDIKVSLLGPVTTPEHQLLKTPSSSSLSQRVRSTLTKNTPRFGSKSKSATNLGRQGNFFASPMLK
In the case of B2, the binding result is given as “binds”.
